Measurements as given in PubChem BioAssay AID504467 (National Center for Advancing Translational Sciences (NCATS), 2011).
About 7,700 (2.3%) of roughly 330,000 compounds were called active. The inconclusive results got no clear call from the source; some entries with a clear call stand among them for comparison. Calls follow the shape of the dose curve; as a rule, active = well fitted inhibition curve with a large enough effect; inconclusive = small, poorly fitted or top-dose-only effect, or effect the other way; inactive = flat fitted curve, though single readings scatter. Potencies beside an inconclusive call are fits to weak or partial responses and may not hold up.

experiment: qHTS screen for small molecules that inhibit ELG1-dependent DNA repair in human embryonic kidney (HEK293T) cells expressing luciferase-tagged ELG1; conditions: HEK293T ELG1-luciferase reporter, luminescence, 16 h, DNA damage induced by 5-fluorouridine; activity change, negative = inhibition: at 46.1 µM (top of the series); also: nearly all actives have a fitted effect of over 55% in size
Summary of the method: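 Step one: seed 2,000 cells per well. Step two: pin-transfer compound or DMSO alongside 5-fluorouridine. Step three: incubate 16 hr, 37 °C, 5% CO2. Step four: add ONE-Glo, wait 30 min, read luminescence.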
% is scaled to controls: 0 for no effect and ±100 for the full control effect; potency is read from the fitted curve at half-maximal effect.

Structure (SMILES) | Potency | activity change, negative = inhibition
Cc1ncc(CO)c(/C=N/NC(=S)Nc2ccc(F)cc2)c1O | inconclusive: 20.6 µM [inhibitor, partial curve] | 
CC(C)(C)c1ccc(C(=O)NC(=S)Nc2nc3c(s2)CCCC3)cc1 | inconclusive: 16.4 µM [activator, partial curve] | 
Cc1ccsc1/C=C/c1ccc2ccccc2n1 | inconclusive: 2.31 µM [activator, partial curve] | 
COc1ccccc1N1CC(C(=O)OCC(=O)Nc2c(C)cccc2C)CC1=O (stereo unspecified) |  | inactive: 14.4%
O=S(=O)(c1ccc(Cl)nc1)N1CCC(Cc2ccccc2)CC1 | inconclusive: 20.6 µM [activator, single point] | 
Cc1ccc(NC(=O)N2CCC(c3nc4c(nnn4Cc4c(F)cccc4Cl)c(=O)[nH]3)CC2)cc1 | active: 18.4 µM | 
O=C(CCNc1ccccc1)c1cccc([N+](=O)[O-])c1 | inconclusive: 25.9 µM [activator, partial curve, poor fit] | 
Cc1ccccc1NS(=O)(=O)c1cc(C(=O)Nc2cccc([N+](=O)[O-])c2)ccc1C | inconclusive: 29.1 µM [inhibitor, single point] | 
Cc1ccc(Cn2ncn(-c3ccccc3)c2=O)cc1 | inconclusive: 18.3 µM [activator, single point] | 
O=C(NNC(=O)C1C2CCCCC21)c1coc(=O)c(Br)c1 (stereo unspecified) | inconclusive: 29.1 µM [activator, single point] | 
C=Cc1ccc2c(c1)N(C)C(=C)S2 |  | inactive: -0.523%
CCOC(=O)C1CCCN(c2ncnc3c2cnn3-c2ccc(OC)cc2)C1 (stereo unspecified) | inconclusive: 23.1 µM [activator, partial curve] | 
Cc1ccc2cc3c(NC(=O)C4CCCO4)nn(CC(C)C)c3nc2c1 (stereo unspecified) | inconclusive: 18.4 µM [inhibitor, single point] | 
COCCCNC(=O)Cn1cc(C(=O)c2cccs2)c2ccccc21 | inconclusive: 6.51 µM [activator, partial curve, poor fit] | 
CCOC(=O)C(=O)N/N=C/c1ccco1 | inconclusive: 29.1 µM [activator, single point] | 
NC(=O)c1ccccc1OCc1nnc(-c2ccccc2Br)o1 |  | inactive: 0%
CCN(CC)CCNc1ncnc2c1sc1nc(N3CCOCC3)c3c(c12)CCCC3 | inconclusive: 14.6 µM [activator, partial curve] | 
CCCCn1c(=O)[nH]c(=O)c2c1nc(-c1ccc(CC)c([N+](=O)[O-])c1)n2C | inconclusive: 23.1 µM [inhibitor, single point] | 
COc1cc(C2c3[nH]c4ccccc4c3CCN2Cc2cn(C)nc2C)ccc1F (stereo unspecified) | inconclusive: 18.3 µM [inhibitor, single point] | 
CCOC(=O)C1(C(C)(C)CC)CC(CSc2nc3ccccc3[nH]2)OC1=O (stereo unspecified) | inconclusive: 23.1 µM [inhibitor, partial curve] | 
Cc1ccc(C(=O)NC(=S)NCCN2CCOCC2)cc1 | inconclusive: 29.1 µM [activator, single point] | 
COc1ccc(-c2cn(-c3ccc(C)cc3C)c(=O)[nH]2)cc1OC | inconclusive: 9.2 µM [inhibitor, partial curve] | 
Cc1ccc(NC(=S)NCCc2ccc(Cl)cc2)c(C)c1 |  | inactive: 1.86%
CC(NC(=O)c1ccccc1Cl)C1COc2ccccc2O1 (stereo unspecified) | inconclusive: 23.1 µM [activator, partial curve] | 

A few values from above.
Entry for CCOC(=O)C1CCCN(c2ncnc3c2cnn3-c2ccc(OC)cc2)C1 (stereo unspecified) under Potency: inconclusive: 23.1 µM [activator, partial curve]
Entry for Cc1ccc(C(=O)NC(=S)NCCN2CCOCC2)cc1 under Potency: inconclusive: 29.1 µM [activator, single point]
Entry for COCCCNC(=O)Cn1cc(C(=O)c2cccs2)c2ccccc21 under Potency: inconclusive: 6.51 µM [activator, partial curve, poor fit]
Entry for Cc1ccc(NC(=O)N2CCC(c3nc4c(nnn4Cc4c(F)cccc4Cl)c(=O)[nH]3)CC2)cc1 under Potency: active: 18.4 µM
Entry for Cc1ccsc1/C=C/c1ccc2ccccc2n1 under Potency: inconclusive: 2.31 µM [activator, partial curve]

Next part.

Structure (SMILES) | Potency | activity change, negative = inhibition
CC1=C(C#N)C(C(F)(F)F)(C(F)(F)F)N=C(c2ccco2)N1 |  | inactive: 0%
O=C(NCc1cccc(Cl)c1)c1cccc(C(F)(F)F)c1 |  | inactive: -3.1%
CCN1C(=O)c2cccc3c(NS(=O)(=O)c4ccc(NC(C)=O)cc4)ccc1c23 | inconclusive: 35.5 µM [inhibitor, single point] | 
S=c1nc(-c2ccccc2)[nH]n1-c1ccccc1 |  | inactive: 25.6%
O=C(Nc1ccc(Cn2cccn2)cc1)c1ccc(COc2cccc(Br)c2)cc1 | inconclusive: 32.6 µM [inhibitor, single point] | 
CCOC(=O)CN1C(=O)S/C(=C/c2ccc3c(c2)n(C)c(=O)n3C)C1=O | inconclusive: 16.4 µM [activator, partial curve] | 
Cc1cc(C)cc(N(CC(=O)NCc2ccc3c(c2)OCO3)C(=O)CCC(=O)Nc2ccccn2)c1 | inconclusive: 23.1 µM [inhibitor, single point] | 
CC(OC(=O)c1ccc([N+](=O)[O-])o1)C(=O)Nc1nc(-c2ccc(F)c(F)c2)cs1 (stereo unspecified) | inconclusive: 9.2 µM [activator, partial curve] | 
Cc1c(N(C(=O)Cc2cccs2)C2(C(=O)NC3CCCC3)CCCCC2)c(=O)n(-c2ccccc2)n1C |  | inactive: -6.69%
O=C(NCCCN1CCOCC1)c1cc(-c2ccccc2)on1 | inconclusive: 25.9 µM [activator, single point] | 
O=C(Nc1cccc(-c2csc(Nc3cccc(C(F)(F)F)c3)n2)c1)c1ccccc1 | active: 20.6 µM | 
CCOC(=O)N1CCN(C(=O)c2c(N)no[n+]2[O-])CC1 |  | inactive: 9.61%
CCCCNc1c(-c2ccc(OC)c(SC3CCCCC3)c2)nc2cnccn12 | inconclusive: 14.1 µM [inhibitor, single point] | 
CCOC(=O)C1(CC2CCCCO2)CCN(Cc2ccc(OC)cc2F)CC1 (stereo unspecified) |  | inactive: -16.9%
CCOC(=O)C1=CN(CC2CCCO2)C=C(C(=O)OCC)C1c1ccccc1C(F)(F)F (stereo unspecified) | inconclusive: 32.6 µM [inhibitor, partial curve, poor fit] | 
COc1ccc(/C=C/C(=O)NC(=S)NCC2CCCO2)cc1 (stereo unspecified) |  | inactive: -17%
COc1cc(CNCc2ccccn2)ccc1OCC(N)=O | inconclusive: 5.01 µM [inhibitor, single point] | 
O=C(CSc1nncs1)NC(=O)Nc1ccc2c(c1)OCCO2 | inconclusive: 16.4 µM [activator, partial curve] | 
COCCNC(=O)c1ccc2c(c1)nc(C)n2-c1cccc(Cl)c1 |  | inactive: -1.42%
O=C(Cc1c(F)cccc1Cl)OCC(=O)c1ccc[nH]1 | inconclusive: 16.4 µM [activator, partial curve] | 
COc1ccccc1N1CCN(C(c2ccccc2)c2nnnn2CCc2ccccc2)CC1 (stereo unspecified) | inconclusive: 29.1 µM [inhibitor, single point] | 
C/C(=C/C(=O)O)C(=O)Nc1cccc(C(F)(F)F)c1 |  | inactive: 6.44%
O=C(CSc1nc2ccccc2s1)NNC(=O)Nc1ccc(Cl)c(Cl)c1 |  | inactive: -1.84%
COc1cccc(-c2noc(CCC(=O)NC3CCCC3)n2)c1 |  | inactive: 8.24%

Structure (SMILES) | Potency | activity change, negative = inhibition
O=C(Nc1c2c(nn1-c1ccccc1)CS(=O)C2)c1ccc(Br)o1 (stereo unspecified) | inconclusive: 29.1 µM [activator, partial curve, poor fit] | 
Cc1noc(C)c1NC(=O)Nc1cccc2c1O[C@H](CN(C)C(=O)Nc1ccc3c(c1)OCO3)[C@@H](C)CN([C@H](C)CO)C2=O | inconclusive: 11.6 µM [inhibitor, partial curve, poor fit] | 
CCCN1C(=O)c2ccc(C(=O)NCc3ccco3)cc2C1=O |  | inactive: -10.5%
COCCNC(=O)/C(C#N)=C/c1nc(N(C)C)n(-c2ccc(F)cc2)c1Cl | inconclusive: 13 µM [activator, partial curve, poor fit] | 
COCCC(=O)N1CCC(Oc2ccc(C(=O)NCCc3ccccn3)cc2)CC1 |  | inactive: 0.0614%
COc1ccc(CC/C(=N\O)C2(O)CCCCC2)cc1 | inconclusive: 20.6 µM [activator, partial curve, poor fit] | 
CCc1cc(C(=O)N(CC(C)C)c2c(N)n(Cc3ccccc3)c(=O)[nH]c2=O)sc1C |  | inactive: -2.62%
CCc1c(C)nc2cc(-c3cc(OC)cc(OC)c3)nn2c1N1CCN(CCN2CCOCC2)CC1 | active: 2.59 µM | 
O=C(O)c1cc(Cl)c(Cl)cc1C(=O)N1CCOCC1 |  | inactive: 13.1%
CCOc1ncc(S(=O)(=O)N2CCN(CC)CC2)cc1C(=O)O |  | inactive: 12.4%
CC(C)CC(=O)Nc1nc2ccc(S(=O)(=O)N3CCOCC3)cc2s1 | inconclusive: 20.6 µM [inhibitor, single point] | 
COc1ccccc1-c1nnc(SC/C(O)=C(\C#N)c2nc3ccccc3[nH]2)n1C1CCCCC1 | inconclusive: 29.1 µM [inhibitor, single point] | 
CC(=O)c1cc2c(cc1NC(=O)c1ccccc1C)OCO2 |  | inactive: 11%
C/C(=C\C(=S)Nc1ccccc1)Nc1cccc2ccccc12 |  | inactive: 6.26%
COc1ccc(C(=O)NNC(=O)c2ccc3ccccc3n2)cc1 | inconclusive: 23.1 µM [activator, partial curve] | 
Cc1cccc(/C=N/NC(=O)Cc2cccs2)c1 | inconclusive: 29.1 µM [activator, single point] | 
Cn1c(CCNC(=O)c2cccs2)n[nH]c1=S | inconclusive: 29.1 µM [activator, partial curve, poor fit] | 
COC(=O)COc1ccc(/C=N/NC(=O)CN(c2ccccc2OC)S(=O)(=O)c2ccccc2)cc1 |  | inactive: 22.4%
CN1CCN(C(=O)COCc2cc(-c3ccc4c(c3)OCO4)on2)CC1 | inconclusive: 14.6 µM [activator, partial curve] | 
O=C(CNc1cc(S(=O)(=O)N2CCOCC2)ccc1NCC1CCCO1)Nc1ccccc1F (stereo unspecified) | inconclusive: 25.9 µM [inhibitor, partial curve, poor fit] | 
O=C(NNC1=Nc2ccccc2SC1)c1ccc(Cl)cc1 | active: 6.51 µM | 
COc1ccc(OCc2cc(C(=O)N(C)C3CCOC3)no2)c(Cl)c1 (stereo unspecified) | inconclusive: 20.6 µM [activator, single point] | 
CC1(C)Oc2ccc3ccc(=O)oc3c2/C(=C/Nc2ccc(O)cc2)C1=O | inconclusive: 23.1 µM [inhibitor, single point] | 
